For 8 substances, binding results are on record in publication doi:10.1101/534545.

Sequences of proteins named here, by UniProt entry; tags and fusion partners are left off. A change or cut given only in a name is not applied to a line headed by its entry.
UniProt Q38919: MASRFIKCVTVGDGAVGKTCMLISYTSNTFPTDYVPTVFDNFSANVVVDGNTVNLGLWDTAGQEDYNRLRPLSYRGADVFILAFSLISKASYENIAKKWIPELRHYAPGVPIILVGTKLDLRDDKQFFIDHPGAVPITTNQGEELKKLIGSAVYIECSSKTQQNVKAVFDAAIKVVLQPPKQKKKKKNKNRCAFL

These are yes or no findings as the source states them, for the method shown. In cells and extracts the contact can be indirect. Some entries that bind do so weakly or less than the wild type. Where a sequence is shown, tags or fusion partners need not be part of it.

In the first assay the target is T1, GEF3-cYFP (Arabidopsis thaliana) (UniProt A4IJ27).
T1 sequence: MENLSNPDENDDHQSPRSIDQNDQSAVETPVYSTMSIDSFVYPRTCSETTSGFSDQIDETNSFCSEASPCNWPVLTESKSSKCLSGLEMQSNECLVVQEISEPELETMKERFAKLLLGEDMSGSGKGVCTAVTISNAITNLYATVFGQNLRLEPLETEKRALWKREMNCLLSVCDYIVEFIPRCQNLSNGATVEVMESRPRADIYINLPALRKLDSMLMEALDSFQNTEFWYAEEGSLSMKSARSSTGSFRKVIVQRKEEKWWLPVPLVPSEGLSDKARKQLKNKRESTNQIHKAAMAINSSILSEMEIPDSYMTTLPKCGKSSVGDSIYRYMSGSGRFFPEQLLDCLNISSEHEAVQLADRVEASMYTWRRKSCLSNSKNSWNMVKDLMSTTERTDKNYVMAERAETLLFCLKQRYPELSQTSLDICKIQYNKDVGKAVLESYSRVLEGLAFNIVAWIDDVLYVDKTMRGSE
As to the kind of experiment: split reporter.
Turning to “nYFP-CA-ROP2 (G14V) (from UniProt Q38919 1-195)”, the binding entry was “binds”.
On the same count and under the same terms, the entry for “nYFP-DN-ROP2 (D120A) (from UniProt Q38919 1-195)” is “binds”; for “nYFP-ROP2 (wild-type) (from UniProt Q38919 1-195)” it is “binds”; for “nYFP-rop2ΔN (Δ1-79) (from UniProt Q38919 80-195) (domain or fragment)” it is “no binding”.

Another assay addresses T2, GEF3 bait/Cub fusion (Arabidopsis thaliana) (UniProt A4IJ27).
T2 sequence: T1 sequence
Nature of the assay: mating-based split-ubiquitin assay in yeast.
“CA-ROP2 (G14V) prey/Nub fusion (from UniProt Q38919 1-195)”: the binding result is on record as “binds”.
The same measure, in the same setting: the entry for “DN-ROP2 (D120A) prey/Nub fusion (from UniProt Q38919 1-195)” is “binds”; for “ROP2 (wild-type) prey/Nub fusion (from UniProt Q38919 1-195)” it is “binds”; for “rop2ΔN (Δ1-79) prey/Nub fusion (from UniProt Q38919 80-195) (domain or fragment)” it is “no binding”.
